Results: PubChem BioAssay AID2685 (National Center for Advancing Translational Sciences (NCATS), 2010)
Some of the results follow. These are further read-outs of the screen, such as a control signal, another cell line or another target. No call is given for them. The list favours compounds with an active or inconclusive main result. The note in brackets gives the kind of curve behind each potency; many fits are weak.

Experiment: qHTS Assay for Lipid Storage Modulators in Drosophila S3 Cells;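 as to cell number change: cells counted by Cell Tracker Red CMTPX staining in the red channel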
Settings: BODIPY lipid droplet fluorescence, 18-24 h; for cell number change: measured here: cell count max response, cells fed with added oleic acid
Outline: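 Drosophila S3 cells loaded with oleic acid (400 uM, as added) and compounds at several concentrations; lipid droplets imaged by 488-nm laser-scanning cytometry, 500–530 nm intensity and object ratio to cell channel. Percent activity normalized to 20 uM Triacsin C.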

[1] = measured here: cell number channel AC50, cells fed with added oleic acid
[2] = measured here: lipid fluorescence (Fed channel) AC50, cells fed with added oleic acid

CC(C)(C(=O)O)n1cncn1
cell number change: -32.6% | AC50 [1]: 32.6 µM [falling, single point] | AC50 [2]: 0.116 µM [falling, full curve, poor fit]

CCc1ccccc1NC(=O)CNC(=O)c1cn(Cc2ccccc2)nc1-c1cccnc1
cell number change: -36.1% | AC50 [1]: 32.6 µM [falling, single point] | AC50 [2]: 1.84 µM [falling, partial curve]

CCOC(=O)c1cc(C)sc1NC(=O)CCC(=O)O
AC50 [2]: 18.4 µM [falling, single point]

CCc1ccccc1NC(=O)c1ccc([N+](=O)[O-])s1
cell number change: -57.5% | AC50 [1]: 29.1 µM [falling, single point] | AC50 [2]: 29.1 µM [falling, single point]

Cc1ccc(CN2CCC(n3nccc3NC(=O)CCOc3ccccc3)CC2)cc1C
AC50 [2]: 0.116 µM [falling, single point]

O=C(OCn1nnc2ccccc2c1=O)c1ccc(S(=O)(=O)N2CCOCC2)cc1
cell number change: 14.1% | AC50 [2]: 3.26 µM [falling, full curve, poor fit]

COCCNC(=S)Nc1ccc2nc(N3CCN(C)CC3)cc(C)c2c1
cell number change: -2.7% | AC50 [2]: 29.1 µM [rising, single point]

COc1ccc(C(=O)c2ccc(-c3ccc(OC)cc3)nc2)cc1
cell number change: -4.17%

CC(C)(C)C(=O)O/N=C(\N)c1ccc(-c2csnn2)cc1
cell number change: 12.5% | AC50 [2]: 6.51 µM [falling, single point]

CCOC(=O)C1=C(C)N(CCCC(=O)NCc2ccc3c(c2)OCO3)C(=O)NC1c1ccc(Br)cc1 (stereo unspecified)
cell number change: 8.38% | AC50 [2]: 0.731 µM [rising, full curve, poor fit]

CC(C)(C)OC(=O)N1Cc2ccccc2C[C@H]1C(=O)NCC(=O)NCC1CCCO1 (stereo partly specified)
cell number change: 21.4% | AC50 [2]: 1.3 µM [falling, full curve]

CCN(CC)CCn1c2c(c(SCC(=O)Nc3cc(C)ccc3C)nc1=O)CCC2
cell number change: 24.5% | AC50 [2]: 8.2 µM [rising, partial curve]

COc1ccc(S(=O)(=O)NCC(=O)N(CC(=O)NCc2ccco2)Cc2ccc(F)cc2)cc1
cell number change: -25.7% | AC50 [2]: 1.3 µM [falling, partial curve]

COCCOc1ccc(C(F)(F)F)cc1NC(=O)COC(=O)C1=COCCO1
AC50 [1]: 1.64 µM [rising, partial curve]

CC(=O)c1ccc(OC(=O)COc2ccccc2Cl)cc1
cell number change: -39.2% | AC50 [1]: 29.1 µM [falling, single point]

C=CCn1c(Cc2cccs2)nnc1SCC(=O)c1cccc(Br)c1
cell number change: 5.46%

O=C(NNC(=O)C(c1ccccc1)c1ccccc1)c1ccccn1
cell number change: -28.1% | AC50 [2]: 0.92 µM [falling, partial curve, poor fit]

O=C(Nc1ccc(Br)cc1F)C1CCN(c2nnc(-n3cccc3)s2)CC1
cell number change: -0.167% | AC50 [2]: 29.1 µM [rising, single point]

CC1(C(=O)Nc2nnc(SCc3ccccc3)s2)Cc2ccccc2C(=O)O1 (stereo unspecified)
AC50 [1]: 6.51 µM [rising, single point] | AC50 [2]: 1.03 µM [rising, full curve]

CCOCc1nnc(NC(=O)COc2ccc3c(c2)OCO3)s1
cell number change: 10.5% | AC50 [2]: 29.1 µM [rising, single point]

Cc1ccc(C(C)C)c(OCC(=O)NC(=S)Nc2ccccc2N2CCOCC2)c1
cell number change: -16% | AC50 [2]: 23.1 µM [rising, partial curve]

c1cn(CCCNc2ncnc3nc[nH]c23)cn1
cell number change: -71.6% | AC50 [1]: 29.1 µM [falling, single point]

CC(=O)c1cccc(N(C(=O)c2ccco2)C(C(=O)NC2CCCC2)c2ccccc2F)c1 (stereo unspecified)
cell number change: -6.09% | AC50 [2]: 0.58 µM [falling, single point]

CC(OC(=O)c1ccc2c(=O)n3c(nc2c1)CCCCC3)C(=O)Nc1ccc(F)cc1Cl (stereo unspecified)
cell number change: 13.7% | AC50 [2]: 25.9 µM [rising, single point]

CCN1CCN(C(=S)c2ccc(Cl)c(Cl)c2)CC1
cell number change: 21.2% | AC50 [1]: 0.206 µM [falling, full curve, poor fit] | AC50 [2]: 1.46 µM [falling, partial curve]

Cc1ccc(S(=O)(=O)NC(=O)Nc2cc(C(C)(C)C)on2)cc1
cell number change: 1.96% | AC50 [2]: 4.11 µM [rising, single point]

COc1ccc(N2CC(NC(=O)c3cccc4ccccc34)CC2=O)cc1OC (stereo unspecified)
cell number change: 52.7% | AC50 [1]: 16.4 µM [rising, single point]

COCCOC(=O)C1=C(C)NC(=O)NC1c1cccc2ccccc12 (stereo unspecified)
cell number change: -3.02% | AC50 [1]: 0.00517 µM [rising, full curve, poor fit] | AC50 [2]: 18.4 µM [falling, single point]

CCOC(=O)c1ccc(N/C=C/C(=O)c2ccc(OC)c(OC)c2)cc1
cell number change: -27.3% | AC50 [2]: 29.1 µM [falling, single point]

CC(C)C(C)NC(=O)Cn1cnc2c(oc3ccccc32)c1=O (stereo unspecified)
cell number change: 0.451% | AC50 [2]: 29.1 µM [falling, single point]

Cn1ccc(C(=O)OCC(=O)Nc2cccc(Cl)c2)n1
cell number change: -21.8% | AC50 [2]: 4.61 µM [falling, single point]

O=C(CSCc1c(F)cccc1Cl)NCc1ccco1
cell number change: -56.8% | AC50 [1]: 5.8 µM [falling, partial curve]

CC(=O)NC(=S)NNC(=O)c1ccc(Br)cc1
AC50 [2]: 6.51 µM [rising, single point]

CCN(CC(=O)Nc1ccccc1C(F)(F)F)C(=O)c1cc(-c2cccs2)nn1-c1ccccc1
cell number change: -42.8% | AC50 [1]: 17.8 µM [falling, single point] | AC50 [2]: 17.8 µM [falling, single point]

CCN(CCNC(=O)C1CCN(S(=O)(=O)c2cccc3cccnc23)CC1)c1ccccc1
AC50 [1]: 2.91 µM [rising, partial curve] | AC50 [2]: 6.51 µM [rising, single point]

Cc1ccc(C)c(CSc2ccc3nnc(-c4ccccn4)n3n2)c1
cell number change: -4.77% | AC50 [2]: 6.51 µM [falling, single point]

CCOC(=O)N1CCN(S(=O)(=O)c2cc(C)c(C)cc2C)CC1
cell number change: -26.8% | AC50 [2]: 29.1 µM [falling, single point]

CN1CCCC(OC(=O)/C(C#N)=C/c2ccccc2)C1 (stereo unspecified)
cell number change: 30.2% | AC50 [1]: 29.1 µM [rising, single point]

O=C(NCCc1nc2ccccc2[nH]1)/C(=C/c1ccc(F)cc1)NC(=O)c1ccco1
cell number change: 39.4% | AC50 [1]: 25.9 µM [rising, single point]

COc1ccc(CNC(=O)CN(Cc2ccco2)C(=O)CNS(=O)(=O)c2ccccc2)cc1
cell number change: -14.1%

COc1ccc(CCNC(=O)C(=O)c2cn(CC(=O)N3CCOCC3)c3ccccc23)cc1OC
cell number change: -14% | AC50 [2]: 3.26 µM [falling, partial curve]

COc1ccccc1C(=O)NNC(=O)c1sccc1-n1cccc1
cell number change: 19.6% | AC50 [2]: 3.26 µM [rising, single point]

O=C(CCn1c(=O)oc2ccccc21)n1c(=O)oc2ccccc21
AC50 [2]: 29.1 µM [rising, single point]

COc1cc(C2C(C#N)=C(N)N(c3cccnc3)C3=C2C(=O)CCC3)ccc1O (stereo unspecified)
AC50 [1]: 6.51 µM [rising, single point] | AC50 [2]: 0.731 µM [rising, full curve]

CC1CCN(S(=O)(=O)c2ccc(NC(=O)CCNC(=O)c3ccc(Cl)cc3)cc2)CC1
cell number change: -48%

O=C1CSC(c2ccccc2[N+](=O)[O-])N1c1ccccc1 (stereo unspecified)
cell number change: 19.1%

CCOC(=O)N1CCC(NC(=O)C(C)n2c3ccccc3c3cnn(C)c(=O)c32)CC1 (stereo unspecified)
cell number change: -2.34% | AC50 [1]: 0.00461 µM [falling, full curve, poor fit] | AC50 [2]: 20.6 µM [rising, single point]

CN(CC(=O)Nc1ccccc1Br)C(=O)c1ccccc1OCc1ccc(F)cc1
cell number change: 18.4% | AC50 [1]: 0.58 µM [falling, single point]

CC(=O)N1CCN(C(=O)c2ccc(S(=O)(=O)Nc3ccccc3F)cc2)CC1
cell number change: -12.3%

CC(C)(C)n1ncc2c(=O)n(Cc3ccc(Cl)c(Cl)c3)cnc21
cell number change: -8.63%

COc1cccc(C(CC(=O)Nc2cccc3ccccc23)NC(=O)c2ccccc2)c1 (stereo unspecified)
cell number change: 11%

COc1ccc(CNC(=O)CC(C)S(=O)(=O)c2ccc3c(c2)NC(=O)CO3)cc1 (stereo unspecified)
cell number change: 16.7% | AC50 [2]: 23.1 µM [rising, single point]

Cc1ccccc1C(=O)N(C)Cc1ccccc1
cell number change: -0.135% | AC50 [2]: 4.11 µM [rising, single point]

c1ccc(CSCc2nc3ccccc3[nH]2)cc1
cell number change: 33.3% | AC50 [1]: 2.91 µM [rising, full curve]

CCc1cccc(CC)c1NC(=O)CN1CCc2cc(OC)c(OC)cc2C1
cell number change: -3.07% | AC50 [2]: 23.1 µM [falling, single point]

CCCOc1ccc(CCC(=O)N/N=C/c2ccc([N+](=O)[O-])o2)cc1
cell number change: -18.5%

O=C(CN1CCCCC1)NC(=O)NC1CCCCC1
cell number change: 13%

CS(=O)(=O)N1CC(C(=O)O)Oc2ccc(CC(=O)O)cc21 (stereo unspecified)
cell number change: -6.84%

CCCNC(=O)c1cccc(Cn2nc(C)c(Br)c2C)c1
cell number change: 30.5% | AC50 [1]: 0.58 µM [rising, partial curve] | AC50 [2]: 2.06 µM [rising, partial curve]

COc1ccc(N(C)S(=O)(=O)c2cccc(C(=O)NC3CCCCCC3)c2)cc1
cell number change: 20.1%

C=CCNCc1ccc(C(=O)NCCCCCCC)cc1[N+](=O)[O-]
cell number change: 8.38% | AC50 [2]: 6.51 µM [falling, single point]

CCO/N=C(\C)c1c(O)cc(C(C)C)n(-c2ccccc2)c1=O
cell number change: -3.45% | AC50 [1]: 0.0731 µM [rising, full curve, poor fit] | AC50 [2]: 6.51 µM [rising, partial curve, poor fit]
